From the supplement of paper PMC10735217 come the findings set out here.

This assay relates to HEK293A TEAD-LUC reporter. In words: TEAD-luciferase reporter activity (YAP activation), robust Z score vs plate; higher = stronger YAP/TEAD activation. The conditions noted are these: 24 h.

The other results are listed elsewhere or left out. Single values are uncertain here, since repeats match poorly.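 Human kidney-derived cells stably carry a construct in which eight TEAD-binding elements drive luciferase, measured by luminescence in a drug-repurposing library screen. A hit is any compound whose signal exceeds the plate mean by more than five robust Z scores.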

Take `O=C1CC(c2cccc(Br)c2)C(=O)N1` (stereo not given) [brosuximide]: the TEAD-luciferase reporter activity runs as follows: (compound concentration: 200 nM) inactive: -1.05; (compound concentration: 2 uM) inactive: 0.879; (compound concentration: 10 uM) inactive: 0.193.

On to `O=C([O-])c1ccc2c(c1)nc(C(=O)NC1CCN(C3CC3)CC1)n2Cc1cc(-c2ccc(Cl)s2)on1`, for which the TEAD-luciferase reporter activity (compound concentration: 200 nM) is inactive: -0.916, the TEAD-luciferase reporter activity (compound concentration: 2 uM) is inactive: 1.56 and the TEAD-luciferase reporter activity (compound concentration: 10 uM) was inactive: 1.95.

Turning to `CN(c1ccc(/C=C/C[C@H](NC(=O)Cc2ccccc2)C(=O)O)cc1)c1ncccn1`, the TEAD-luciferase reporter activity is, setting by setting: (compound concentration: 200 nM) inactive: -0.569; (compound concentration: 2 uM) inactive: 0.507; (compound concentration: 10 uM) inactive: -0.00792.

As to `CS(=O)(=O)c1ccc(-c2cn3ccccc3n2)cc1` [zolimidine], the TEAD-luciferase reporter activity is inactive: 0.76 (compound concentration: 200 nM), inactive: 0.602 (compound concentration: 2 uM) and inactive: 0.733 (compound concentration: 10 uM).

With `c1ccc(Cc2nnn[nH]2)c(COc2ccc(OCc3ccc4ccccc4n3)cc2)c1`, the TEAD-luciferase reporter activity (compound concentration: 200 nM) is inactive: -0.155, the TEAD-luciferase reporter activity (compound concentration: 2 uM) is inactive: -1.95 and the TEAD-luciferase reporter activity (compound concentration: 10 uM) was inactive: -1.89.

Take `CCOc1ccc(-c2cccnc2)c(NC(=O)CC(C)N)c1` (stereo not given): the TEAD-luciferase reporter activity is, setting by setting: (compound concentration: 200 nM) inactive: -0.812; (compound concentration: 2 uM) inactive: 0.0466; (compound concentration: 10 uM) active: 11.

With `CSc1ccc(C(=O)c2cc(CC(=O)O)cc3ccoc23)cc1` [tifurac], the TEAD-luciferase reporter activity reads like this: (compound concentration: 200 nM) inactive: -1.09; (compound concentration: 2 uM) inactive: -1.45; (compound concentration: 10 uM) inactive: -0.678.

`CC(C)(C)C(=O)N1CCC(C(=O)N2CCC(N3Cc4ccccc4C3=O)CC2)CC1`: the TEAD-luciferase reporter activity is inactive: -0.622 (compound concentration: 200 nM) and inactive: 2.64 (compound concentration: 10 uM).

With `Cc1nc(N)nc(N)c1-c1ccc(Cl)c(Cl)c1` [metoprine], the TEAD-luciferase reporter activity (compound concentration: 200 nM) is inactive: -2.37, the TEAD-luciferase reporter activity (compound concentration: 2 uM) was inactive: 0.306 and the TEAD-luciferase reporter activity (compound concentration: 10 uM) is inactive: 0.919.

Regarding `CC/C=C\C/C=C\C/C=C\C/C=C\C/C=C\C/C=C\CCC(=O)O` [docosahecaenoic Acid, Nectid], the TEAD-luciferase reporter activity by setting is: (compound concentration: 200 nM) inactive: 0.0756; (compound concentration: 10 uM) inactive: -2.67.

With `CC/C=C\C/C=C\C/C=C\C/C=C\C/C=C\C/C=C\CCC(=O)O` [docosahecaenoic Acid], the TEAD-luciferase reporter activity (compound concentration: 2 uM) was inactive: -1.45.

With `CCCCCC(=O)O[C@]1(C(C)=O)CC[C@H]2[C@@H]3CCC4=CC(=O)CC[C@]4(C)[C@H]3CC[C@@]21C` [hydroxyprogesterone caproate], the TEAD-luciferase reporter activity (compound concentration: 2 uM) was inactive: -0.199.

`CCCCCC(=O)O[C@]1(C(C)=O)CC[C@H]2[C@@H]3CCC4=CC(=O)CC[C@]4(C)[C@H]3CC[C@@]21C` [Hydroxyprogesterone caproate]: the TEAD-luciferase reporter activity (compound concentration: 200 nM) was inactive: 0.491 and the TEAD-luciferase reporter activity (compound concentration: 10 uM) is inactive: -2.46.

With `CC(OC1CCN(C(=O)OC(C)(C)C)CC1)c1nc(-c2ccc(S(C)(=O)=O)c(F)c2)no1` (stereo not given), the TEAD-luciferase reporter activity is inactive: -2.1 (compound concentration: 200 nM), inactive: -0.217 (compound concentration: 2 uM) and inactive: 0.359 (compound concentration: 10 uM).

For `CC(=O)O[C@@H]1C[C@@H](CO)O[C@H]1n1c(=O)sc2cnc(N)nc21`, the TEAD-luciferase reporter activity was inactive: -1.24 (compound concentration: 200 nM), inactive: -0.722 (compound concentration: 2 uM) and inactive: 0.809 (compound concentration: 10 uM).

On to `CCOC(=O)CCS[C@H](CC(=O)OCC)c1ccccc1CCCCCCCCc1ccccc1`, for which the TEAD-luciferase reporter activity (compound concentration: 200 nM) was inactive: -0.592, the TEAD-luciferase reporter activity (compound concentration: 2 uM) was inactive: -0.875 and the TEAD-luciferase reporter activity (compound concentration: 10 uM) is inactive: 1.1.

Take `CC(=O)N[C@@H](CCCNC(=N)N)C(=O)NC1CSSCC(C(N)=O)NC(=O)[C@H](Cc2c[nH]c3ccccc23)NC(=O)[C@H](CCCNC(=N)N)NC(=O)[C@@H](Cc2ccccc2)NC(=O)[C@H](Cc2cnc[nH]2)NC(=O)[C@@H](C)NC1=O` (stereo not given in full) [Setmelanotide]: the TEAD-luciferase reporter activity was inactive: 1.04 (compound concentration: 200 nM), inactive: 0.157 (compound concentration: 2 uM) and inactive: 0.385 (compound concentration: 10 uM).

Turning to `CCCCC(CC)COC(=O)C(C#N)=C(c1ccccc1)c1ccccc1` (stereo not given), the TEAD-luciferase reporter activity is, setting by setting: (compound concentration: 200 nM) inactive: 2.26; (compound concentration: 2 uM) inactive: -0.0876; (compound concentration: 10 uM) inactive: -0.391.

Take `COc1cc(OC)c(/C=C/S(=O)(=O)Cc2ccc(OC)c(OP(=O)(O)O)c2)c(OC)c1` [Briciclib sodium]: the TEAD-luciferase reporter activity (compound concentration: 200 nM) was inactive: -1.03, the TEAD-luciferase reporter activity (compound concentration: 2 uM) is active: 5.06 and the TEAD-luciferase reporter activity (compound concentration: 10 uM) is inactive: 0.931.

Turning to `Cc1cncc(CN2CCC(=C3c4ccc(Cl)cc4CCc4cccnc43)CC2)c1` [rupatadine], the TEAD-luciferase reporter activity was inactive: -0.838 (compound concentration: 200 nM), inactive: -0.17 (compound concentration: 2 uM) and active: 6.19 (compound concentration: 10 uM).

Consider `CN1CCC(=C2c3ccccc3CSc3ccccc32)CC1`, for which the TEAD-luciferase reporter activity was inactive: -1.64 (compound concentration: 200 nM), inactive: 2.82 (compound concentration: 2 uM) and inactive: 4.29 (compound concentration: 10 uM).

Turning to `C[C@]12CC[C@@H]3c4ccc(O)cc4CC[C@H]3[C@@H]1CCC2=O`, where the note is “compound concentration: 2 uM”, the TEAD-luciferase reporter activity was inactive: 1.95.

In the case of `C[C@]12CC[C@@H]3c4ccc(O)cc4CC[C@H]3[C@@H]1CCC2=O` [Estrone], the TEAD-luciferase reporter activity is inactive: 2.45 (compound concentration: 200 nM) and inactive: 3.79 (compound concentration: 10 uM).

On to `Cc1cc(C)n(-c2cccc([C@H](CC(=O)O)CN3CC[C@@H](CCc4ccc5c(n4)NCCC5)C3)c2)n1`, for which the TEAD-luciferase reporter activity (compound concentration: 200 nM) was inactive: -2.4, the TEAD-luciferase reporter activity (compound concentration: 2 uM) is inactive: -2.1 and the TEAD-luciferase reporter activity (compound concentration: 10 uM) was inactive: 0.996.

As to `CCN(CC)CCNC(=O)c1c(C)[nH]c(/C=C2\C(=O)Nc3ccc(F)cc32)c1C` [Sunitinib Malate], the TEAD-luciferase reporter activity is, setting by setting: (compound concentration: 200 nM) inactive: -3.22; (compound concentration: 10 uM) inactive: 1.3.

Consider `CCN(CC)CCNC(=O)c1c(C)[nH]c(/C=C2\C(=O)Nc3ccc(F)cc32)c1C` [Sunitinib malate], for which the TEAD-luciferase reporter activity (compound concentration: 2 uM) was inactive: 1.95.
